PubChem BioAssay AID686938 – Drosophila RNAi Screening Center | 2013
The screen tested about 23,000 reagents; below is an unselected part of those that have a named target and a result. In the full data, 75 (0.33%) were called active. 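Raw plate signals without normalisation; calls rest on plate z-scores that were not deposited; ratio present for only 364 wells.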 Reagents against one gene are numbered here. Names joined by + are all predicted targets of the reagent. No sequences are given here. Not stated in the record: the dose of the treatment.

- Purpose: 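Fly genes required for calcium entry once internal stores are emptied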 (primary screen)
- Cells: Drosophila S2R+ cells
- Knock-down reagent: long dsRNA against Drosophila genes, about 0.25 µg dsRNA per well, roughly 10,000 cells
- Timing: 5 days of knock-down before the calcium assay
- Challenge: thapsigargin (SERCA pump blocker) to empty calcium stores; entry signal taken 4 min after adding it
- Measured: 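Per-well fluo-4 fluorescence in two replicates, unnormalised, measured in resting cells and 4 min after store depletion by the SERCA blocker thapsigargin; ratio of the two present in few wells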
- Scale: calcium entry signal: higher = stronger calcium signal after store depletion; entry to resting ratio: higher = more calcium entry relative to resting level; resting calcium signal: higher = higher resting calcium signal
- Call rule: 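Hit if the duplicate-averaged plate z-score for entry over resting signal is under −3; wells with weak total dye signal (Fmax z < −2) or more than 5 off-targets removed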
- Calls: active = strongly reduced calcium entry; inactive = no strong reduction

| calcium entry signal, replicate 1 (fluorescence units) | calcium entry signal, replicate 2 (fluorescence units) | entry to resting ratio | resting calcium signal, replicate 1 (fluorescence units) | resting calcium signal, replicate 2 (fluorescence units) | Call | target | reagent no. |
| --- | --- | --- | --- | --- | --- | --- | --- |
| 2.60e7 | 4.15e7 | – | 1.26e7 | 1.85e7 | inactive | CG14089 | 1 |
| 4.68e7 | – | – | 2.33e7 | – | inactive | CR43670 + grp + CR43671 + 1 more | 1 |
| 3.53e7 | 4.86e7 | – | 1.81e7 | 1.89e7 | inactive | Alg-2 (Apoptosis-linked gene-2) | 1 |
| 4.12e7 | 5.55e7 | 2.2 | 1.84e7 | 2.22e7 | inactive | CG13375 | 1 |
| 3.09e7 | 3.89e7 | – | 1.47e7 | 1.83e7 | inactive | Ppi1 (Protein phosphatase 1c interacting protein 1) | 1 |
| 3.53e7 | 5.91e7 | – | 1.85e7 | 2.45e7 | inactive | trp (transient receptor potential) | 1 |
| 3.27e7 | 2.78e7 | – | 1.55e7 | 1.46e7 | inactive | SdhC (Succinate dehydrogenase, subunit C) | 1 |
| 2.84e7 | 4.42e7 | – | 1.53e7 | 1.98e7 | inactive | Fum3 (Fumarase 3) | 1 |
| 3.12e7 | 4.26e7 | – | 1.61e7 | 1.94e7 | inactive | Or7a (Odorant receptor 7a) | 1 |
| 3.53e7 | 3.68e7 | – | 1.85e7 | 1.55e7 | inactive | CG42552 (retired record) | 1 |
| 3.77e7 | 3.72e7 | – | 1.65e7 | 1.83e7 | inactive | CG14492 | 1 |
| 4.66e7 | 4.36e7 | – | 2.10e7 | 1.92e7 | inactive | mwh (multiple wing hairs) | 1 |
| 2.88e7 | 2.79e7 | – | 1.35e7 | 1.19e7 | inactive | mwh (multiple wing hairs) | 2 |
| 4.84e7 | 4.42e7 | – | 2.27e7 | 1.68e7 | inactive | beta3GalTII (beta-1,3-Galactosyltransferase II) | 1 |
| 3.07e7 | 4.91e7 | – | 1.54e7 | 2.07e7 | inactive | yellow-g | 1 |
| 3.52e7 | 3.14e7 | – | 1.66e7 | 1.31e7 | inactive | tmod (tropomodulin) | 1 |
| 3.30e7 | 3.54e7 | – | 1.81e7 | 1.68e7 | inactive | tmod (tropomodulin) | 2 |
| 4.55e7 | 4.64e7 | – | 2.26e7 | 2.03e7 | inactive | tmod (tropomodulin) | 3 |
| 3.01e7 | 5.40e7 | – | 1.38e7 | 2.28e7 | inactive | tmod (tropomodulin) | 4 |
| 1.57e7 | 1.71e7 | – | 9.03e6 | 9.73e6 | inactive | Cbp80 (cap binding protein 80) | 1 |
| 4.56e7 | 4.17e7 | – | 1.93e7 | 1.91e7 | inactive | CG17359 | 1 |
| 3.11e7 | 4.82e7 | – | 1.68e7 | 2.11e7 | inactive | sloth2 + sloth1 | 1 |
| 3.26e7 | 4.83e7 | – | 1.52e7 | 2.20e7 | inactive | sloth2 + sloth1 | 2 |
| 2.32e7 | 2.35e7 | – | 1.27e7 | 1.34e7 | inactive | CtBP (C-terminal Binding Protein) | 1 |
| 2.96e7 | 4.26e7 | – | 1.38e7 | 2.95e7 | inactive | CG3919 | 1 |
| 2.86e7 | 4.57e7 | – | 1.19e7 | 1.88e7 | inactive | CG3631 | 1 |
| 5.03e7 | 4.06e7 | – | 3.37e7 | 1.62e7 | inactive | OXA1L (OXA1L mitochondrial inner membrane protein) | 1 |
| 4.73e7 | 4.62e7 | – | 2.04e7 | 3.21e7 | inactive | tzn (tenzing norgay) | 1 |
| 4.39e7 | 3.57e7 | – | 2.05e7 | 1.54e7 | inactive | CG18095 | 1 |
| 4.16e7 | 5.22e7 | – | 2.04e7 | 2.24e7 | inactive | Gp210 (Glycoprotein 210 kDa) | 1 |
| 3.77e7 | – | – | 1.96e7 | – | inactive | Gp210 (Glycoprotein 210 kDa) | 2 |
| 3.11e7 | 5.50e7 | – | 1.53e7 | 2.46e7 | inactive | spn-A (spindle A) | 1 |
| 4.44e7 | 4.31e7 | – | 2.20e7 | 2.17e7 | inactive | SmydA-5 (SET and MYND domain containing, arthropod-specific, member 5) | 1 |

Part of the list above, reformatted:
{"target":"mwh (multiple wing hairs)","reagent no.":2,"calcium entry signal, replicate 1 (fluorescence units)":2.88e7,"calcium entry signal, replicate 2 (fluorescence units)":2.79e7,"resting calcium signal, replicate 1 (fluorescence units)":1.35e7,"resting calcium signal, replicate 2 (fluorescence units)":1.19e7,"Call":"inactive"}
{"target":"beta3GalTII (beta-1,3-Galactosyltransferase II)","reagent no.":1,"calcium entry signal, replicate 1 (fluorescence units)":4.84e7,"calcium entry signal, replicate 2 (fluorescence units)":4.42e7,"resting calcium signal, replicate 1 (fluorescence units)":2.27e7,"resting calcium signal, replicate 2 (fluorescence units)":1.68e7,"Call":"inactive"}
{"target":"yellow-g","reagent no.":1,"calcium entry signal, replicate 1 (fluorescence units)":3.07e7,"calcium entry signal, replicate 2 (fluorescence units)":4.91e7,"resting calcium signal, replicate 1 (fluorescence units)":1.54e7,"resting calcium signal, replicate 2 (fluorescence units)":2.07e7,"Call":"inactive"}
{"target":"tmod (tropomodulin)","reagent no.":1,"calcium entry signal, replicate 1 (fluorescence units)":3.52e7,"calcium entry signal, replicate 2 (fluorescence units)":3.14e7,"resting calcium signal, replicate 1 (fluorescence units)":1.66e7,"resting calcium signal, replicate 2 (fluorescence units)":1.31e7,"Call":"inactive"}

Further entries follow:
| calcium entry signal, replicate 1 (fluorescence units) | calcium entry signal, replicate 2 (fluorescence units) | entry to resting ratio | resting calcium signal, replicate 1 (fluorescence units) | resting calcium signal, replicate 2 (fluorescence units) | Call | target | reagent no. |
| --- | --- | --- | --- | --- | --- | --- | --- |
| 1.53e7 | 3.31e7 | – | 8.93e6 | 1.42e7 | inactive | CG5612 | 1 |
| 2.49e7 | 4.90e7 | – | 1.30e7 | 2.35e7 | inactive | CG9372 | 1 |
| 4.23e7 | – | – | 1.86e7 | – | inactive | numb | 1 |
| 3.19e7 | 2.63e7 | – | 1.83e7 | 1.45e7 | inactive | CG1738 | 1 |
| 3.41e7 | 4.02e7 | – | 1.65e7 | 1.72e7 | inactive | CBP (sarcoplasmic calcium-binding protein) | 1 |
| 3.63e7 | 3.69e7 | – | 2.03e7 | 1.78e7 | inactive | CG34210 | 1 |
| 3.49e7 | 4.09e7 | – | 1.85e7 | 1.87e7 | inactive | CG15422 | 1 |
| 1.76e7 | 2.44e7 | – | 9.53e6 | 1.20e7 | inactive | mtTFB2 (mitochondrial transcription factor B2) | 1 |
| 3.78e7 | 3.12e7 | – | 2.53e7 | 1.46e7 | inactive | NaPi-III (Na[+]-dependent inorganic phosphate cotransporter type III) | 1 |
| 3.61e7 | 4.97e7 | – | 1.98e7 | 2.55e7 | inactive | NaPi-III (Na[+]-dependent inorganic phosphate cotransporter type III) | 2 |
| 2.07e7 | 2.86e7 | – | 1.14e7 | 1.20e7 | inactive | NaPi-III (Na[+]-dependent inorganic phosphate cotransporter type III) | 3 |
| 4.01e7 | 4.20e7 | – | 1.91e7 | 2.01e7 | inactive | Mal-A1 (Maltase A1) | 1 |
| 3.22e7 | 3.18e7 | – | 1.65e7 | 2.44e7 | inactive | CG12301 | 1 |
| 2.46e7 | 3.16e7 | – | 1.29e7 | 1.31e7 | inactive | CG8858 | 1 |
| 3.95e7 | 4.42e7 | – | 1.77e7 | 2.98e7 | inactive | ICA69 (Islet cell autoantigen 69 kDa) | 1 |
| 2.92e7 | 3.27e7 | – | 1.37e7 | 1.52e7 | inactive | spirit (Serine Protease Immune Response Integrator) | 1 |
| 5.52e7 | – | – | 2.59e7 | – | inactive | CG31883 | 1 |
| 5.21e7 | 4.66e7 | – | 2.63e7 | 2.15e7 | inactive | CG14985 | 1 |
| 3.90e7 | 4.59e7 | – | 1.86e7 | 2.06e7 | inactive | CG14985 | 2 |
| 4.19e7 | – | – | 2.14e7 | – | inactive | stc (shuttle craft) | 1 |
| 3.38e7 | 4.49e7 | – | 1.69e7 | 2.94e7 | inactive | CG13473 | 1 |
| 3.35e7 | 2.78e7 | – | 1.86e7 | 1.51e7 | inactive | myd (mayday) | 1 |
| 3.85e7 | 3.88e7 | – | 4.34e7 | 1.63e7 | inactive | myd (mayday) | 2 |
| 3.87e7 | 3.76e7 | – | 1.98e7 | 1.78e7 | inactive | TotZ (Turandot Z) | 1 |
| 3.19e7 | 3.43e7 | – | 1.45e7 | 2.40e7 | inactive | AIMP2 (aaRS-interacting multifunctional protein 2) | 1 |
